Some of the results follow. These are further read-outs of the screen, such as a control signal, another cell line or another target. No call is given for them. Most of these compounds were active or inconclusive in the main read-out, so they are no random draw. Potencies come from curve fits of mixed quality, noted in brackets.
assay: IkB Signaling; details: ABC-DLBCL IkBa-CBG/CBR dual luciferase ratio (green luciferase fused to IkBa over red control in OCI-Ly3 lymphoma cells), 4 h; measured here: control luc red channel unless noted
Method in brief: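 Luminescence ratio of IκBα-fused green versus native red beetle luciferase in OCI-Ly3 cells, 4 h post-doxycycline with compound; red signal alone, scaled from basal (0%) to zero light (-100%), flagged nonspecific or cytotoxic effects.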

| Structure (SMILES) | AC50 |
| --- | --- |
| c1csc(-c2csc3nc(CN4CCOCC4)nc(NCc4ccc5c(c4)OCO5)c23)c1 | 39.8 µM [falling, single point] |
| COC(=O)c1ccccc1NC(=O)Cn1c(=O)n(CCC(=O)NCc2ccccc2OC)c(=O)c2ccccc21 | 39.8 µM [rising, single point] [measured here: IkB-luc green channel] |
| COc1cc(OC)cc(-c2cc3nc(C)c(CCC(=O)Nc4ccc(C(C)=O)cc4)c(C)n3n2)c1 | 3.98 µM [falling, partial curve] |
| CC(C)c1ccc(CNc2nc(-c3ccco3)nn2C(=O)c2ccc([N+](=O)[O-])cc2)cc1 | 10 µM [falling, partial curve] |
| CSCCC(NS(=O)(=O)c1ccc2c(c1)oc(=O)n2C)C(=O)Nc1ccc(Cl)cc1 (stereo not given) | 20 µM [falling, single point] |
| Cc1ccc(C(=O)Nc2ccc(Cl)cn2)cc1 | 15.8 µM [falling, single point] |
| COCc1cc(C)nc2sc3c(c12)NC(c1ccc(O)c(OC)c1)N(c1ccccc1)C3=O (stereo not given) | 25.1 µM [falling, partial curve] |
| COc1ccc(OCC(=O)N(Cc2cccs2)c2ccc(OC)cc2)cc1 | 12.6 µM [falling, partial curve] |
| CCOC(=O)c1nnn(-c2nonc2N)c1CSc1ccc(C)cc1 | 20 µM [falling, partial curve] |
| CCOCCCNc1nc2ccccc2n2c(CC)nnc12 | 10 µM [falling, partial curve] |
| CCOc1ccccc1CNC(=O)c1ccc(NC(=O)N2CC(C)Sc3ccccc32)cc1 (stereo not given) | 10 µM [falling, partial curve] |
| O=C(NC1(C(F)(F)F)C(=O)Nc2c1c(=O)[nH]c(=O)n2-c1ccccc1)c1ccccc1 (stereo not given) | 0.0126 µM [rising, full curve, poor fit] |
| COc1ccc(OC)c(CNC(=O)CN(c2ccc(C)cc2)S(=O)(=O)N(C)C)c1 | 25.1 µM [falling, single point] |
| CCCN(C(=O)Cn1ncc2c1-c1ccccc1OC2)c1cccc(C)c1 | 31.6 µM [falling, partial curve, poor fit] |
| O=C(Nc1ccc2c(c1)OCCO2)c1ccc(Br)c(S(=O)(=O)N2CCOCC2)c1 | 5.01 µM [falling, partial curve] |
| CCc1ccc(-c2nc(SCC(=O)NCC3CCCO3)c(-c3ccc(C)cc3)[nH]2)cc1 (stereo not given) | 0.0501 µM [falling, full curve, poor fit] |
| Cc1cccc(C)c1NC(=O)Cn1c(=O)n(CCCS(=O)(=O)C2CCCCC2)c(=O)c2ccccc21 | 3.98 µM [rising, single point] |
| Cc1cccc(N2CCN(c3ccc(C(=O)O)cc3NC(=O)c3cccc(Cl)c3)CC2C)c1 (stereo not given) | 10 µM [falling, partial curve] |
| O=C(CSc1nccn1C1CCCC1)Nc1cccc(F)c1 | 1.26 µM [rising, full curve] |
| CSCC[C@@H](C(=O)Nc1cccc(F)c1)N1Cc2ccccc2C1=O | 31.6 µM [falling, single point] |

Arranged by heavy-atom count (rising): three of the compounds above

| Structure (SMILES) | AC50 |
| --- | --- |
| O=C(CSc1nccn1C1CCCC1)Nc1cccc(F)c1 | 1.26 µM [rising, full curve] |
| CCOC(=O)c1nnn(-c2nonc2N)c1CSc1ccc(C)cc1 | 20 µM [falling, partial curve] |
| CC(C)c1ccc(CNc2nc(-c3ccco3)nn2C(=O)c2ccc([N+](=O)[O-])cc2)cc1 | 10 µM [falling, partial curve] |

Carrying on:

| Structure (SMILES) | AC50 |
| --- | --- |
| CCOC(=O)C1CCN(c2c(C(=O)c3ccc(OC)cc3)cnc3ccccc23)CC1 | 31.6 µM [falling, single point] |
| CCOC(=O)c1cc2c(=O)n3ccccc3nc2n(Cc2ccco2)c1=NC(=O)c1ccc(C)c(C)c1 | 39.8 µM [falling, single point] |
| CN(c1ccccc1)S(=O)(=O)c1nnc(NC(=O)COc2ccccc2)s1 | 0.398 µM [rising, partial curve] |
| Cc1cc(C)cc(-n2c(C)cc(C(=O)C(=O)Nc3nnc(C)s3)c2C)c1 | 25.1 µM [falling, single point] |
| CN(C(=O)Cn1cnc2onc(-c3ccc(F)cc3)c2c1=O)c1ccccc1Cl | 2.51 µM [falling, full curve, poor fit] |
| O=[N+]([O-])c1cc(-c2nc(-c3ccco3)no2)ccc1NCc1ccccc1 | 25.1 µM [falling, single point] |
| Cc1ccc2nc(NC(=O)C3CCCN(S(=O)(=O)c4cccnc4)C3)sc2c1 (stereo not given) | 12.6 µM [falling, partial curve] |
| CC(=O)c1c(Nc2ccc3c(c2)OCCO3)oc(C)cc1=O | 7.94 µM [falling, partial curve] |
| CCC(=O)Nc1cccc(-c2nc3ccccc3c(=O)o2)c1 | 20 µM [falling, partial curve] |
| COc1ccc(Cn2c(CO)cnc2SCc2ccc(F)cc2)cc1 | 3.16 µM [falling, partial curve] |
| Cc1cccc(-c2noc(CN(C(=O)CCc3ccccc3)C(C)C)n2)c1 | 15.8 µM [falling, partial curve] |
| Cc1ccc(Cl)cc1N1CCN(Cc2nnnn2C2CCCCC2)CC1 | 25.1 µM [falling, partial curve] |
| Cc1ccc(Cc2nc3ccccc3nc2SCC(=O)N2CCN(c3ccccc3)CC2)cc1 | 7.94 µM [falling, partial curve] |
| CCOc1ccccc1NC(=O)C1=C(C)Nc2ncnn2C1c1ccc(NC(C)=O)cc1 (stereo not given) | 10 µM [falling, partial curve] |
| CC1(C)CC(=O)C(C=Nc2ccc3[nH]ncc3c2)=C(O)C1 | 2.51 µM [falling, full curve, poor fit] |
| COc1ccc(-c2onc(C)c2C)cc1S(=O)(=O)NCc1ccc(C)o1 | 0.316 µM [rising, full curve, poor fit] |
| COc1ccc(CCCc2nnc(SCC(=O)Nc3cccc(C)c3)o2)cc1 | 25.1 µM [falling, partial curve] |
| Cc1ccc2[nH]cc(C(c3ccccc3)c3ccc(C)s3)c2c1 (stereo not given) | 39.8 µM [falling, single point] |
| CCOC(=O)c1ccc(-c2ccc(/C=C(\C#N)c3nc4ccc(C)cc4[nH]3)o2)cc1 | 7.94 µM [falling, full curve] |
| COCC(C)NC(=O)c1cc2c(=O)n3cccc(C)c3nc2s1 (stereo not given) | 3.98 µM [rising, partial curve] |

From PubChem BioAssay AID445 (National Center for Advancing Translational Sciences (NCATS), 2006)
